“And” between values parts separate entries of the source, which are not always exact repeats. Equal values may be shown once. ± gives the standard deviation of the averaged measurements. Over roughly 3,800 compounds, “cell shape (eccentricity) Z-score vs DMSO control” has its median near 1.1; the lowest 2% begin near -4.7. The list shows a part of the results.
Each molecule was assayed on human monocyte-derived macrophages (M0) (assay: cell shape (eccentricity) Z-score vs DMSO control; higher = more elongated, M2-like morphology). Details: 20 µM; 24 h; macrophage state: M0 (M-CSF).

Row | Compound | cell shape (Z-score)
1 | CCCCCCCCCCCCCCCC(=O)OC[C@H](NC(=O)C(Cl)Cl)[C@H](O)c1ccc([N+](=O)[O-])cc1 | 3.85
2 | COc1ccc2c(C)cc(=O)oc2c1 | 4.64
3 | C=C[C@@](C)(O)CCC1C(=C)CCC2[C@@](C)(CO)CCC[C@]12C (stereo partly drawn) | 4.09
4 | CC1(C)C=Cc2c(c(CCO)c3occ(-c4ccc(O)c(O)c4)c(=O)c3c2O)O1 | 0.8 ± 0.24
5 | COc1c(-c2coc3cc4c(cc3c2=O)CC(O)C(C)(C)O4)ccc2c1C=CC(C)(C)O2 (stereo not drawn) | -0.764
6 | CC(C)(C)NCC(O)COc1cccc2c1C[C@H](O)[C@H](O)C2 (stereo partly drawn) | 3.94
7 | CCCc1ncc(C[n+]2ccccc2C)c(N)n1 | -0.886
8 | NCCCC(=O)O | -0.672
9 | CNc1cc2c(Nc3cccc(Br)c3)ncnc2cn1 | -0.207
10 | COC1=CC(=O)CC(C)C12Oc1cc(OC)cc(O)c1C2=O (stereo not drawn) | 1.27
11 | CN1CCc2cc3c(cc2C2OC(O)c4c(ccc5c4OCO5)C21)OCO3 (stereo not drawn) | 0.865
12 | O=C1Nc2cc(Cl)ccc2Oc2ccccc21 | -1.93
13 | COc1ccc(C2OCC3C2CO[C@H]3c2ccc(OC)c(OC)c2)cc1OC (stereo partly drawn) | 1.89 ± 1.2
14 | COC(=O)C1=C(C)NC(C)=C(C(=O)OC(C)C)C1c1cccc2nonc12 (stereo not drawn) | -1.25
15 | CCCCC(=O)NCCc1c(Cc2ccccc2)[nH]c2ccccc12 | 0.707
16 | Cc1cc2c(F)c(Oc3ncnn4cc(OC[C@@H](C)O)c(C)c34)ccc2[nH]1 | 3.4
17 | COc1ccc([C@@H]2O[C@@H](c3ccc(OC)c(OC)c3)[C@@H](C)[C@@H]2C)cc1OC | 1.4
18 | COC(=O)C1(Cc2ccc(O)c(CC3OC3(C)C)c2)OC(=O)C(=O)C1c1ccc(O)cc1 (stereo not drawn) | 3.21
19 | CC(C)(O)CC[C@@H](O)[C@](C)(O)C1CC[C@@]2(O)C3=CC(=O)C4C[C@@H](O)[C@@H](O)C[C@]4(C)C3CC[C@]12C (stereo partly drawn) | 1.26
20 | Oc1ccc2c(c1)OCC1(O)Cc3cc(O)c(O)cc3C21 (stereo not drawn) | 1.27
21 | CC(=O)[C@@]1(O)CCC2C3C[C@H](C)C4=CC(=O)C=CC4(C)[C@@]3(F)[C@@H](O)C[C@@]21C (stereo partly drawn) | -2.14

Row | Compound | cell shape (Z-score)
22 | Oc1ccc(-c2nc(-c3ccc(F)cc3)c(-c3ccncc3)[nH]2)cc1 | -5.27
23 | O=C(Nc1ccncc1)c1cc([N+](=O)[O-])ccc1Cl | 5.45
24 | COc1cc(O)ccc1C(C)=O | 1.8
25 | CC1(C)CC[C@]2(C(=O)O)CC[C@]3(C)C(=CCC4[C@@]5(C)CC[C@H](O[C@@H]6O[C@H](C(=O)O)[C@@H](O[C@@H]7OC[C@@H](O)[C@H](O)[C@H]7O)[C@H](O)[C@H]6O)C(C)(C)C5CC[C@]43C)C2C1O (stereo partly drawn) | -0.342 ± 0.58
26 | NC(=O)C1(N2CCCCC2)CCN(CCCC(=O)c2ccc(F)cc2)CC1 | -0.00699
27 | COC(=O)Nc1ccc2[nH]cc(CCNC(C)=O)c2c1 | -0.0575
28 | C#CC1(OCC(O)CN2CCN(c3ccccc3OC)CC2)CCCCC1 (stereo not drawn) | -0.311
29 | CC1=CC(CC2(C)OC2COc2c3occc3cc3ccc(=O)oc23)OC1=O (stereo not drawn) | 0.262
30 | O=c1c(OC2OCC(O)C(O)C2O)c(-c2ccc(O)c(O)c2)oc2cc(O)cc(O)c12 (stereo not drawn) | 0.344
31 | C[C@H](NC[C@H](O)CP(=O)(O)Cc1ccccc1)c1ccc(Cl)c(Cl)c1 | -2.07
32 | CCN(CC)CCOCCOC(=O)C(CC)(CC)c1ccccc1 | 0.26
33 | COc1ccc(S(=O)(=O)Nc2nnc(CC(C)C)s2)cc1 | 1.84
34 | CC(C)N1CCN(c2ccc(OC[C@H]3CO[C@](Cn4cncn4)(c4ccc(Cl)cc4Cl)O3)cc2)CC1 | -0.671
35 | COc1cc(C=O)cc2c1[nH]c1ccccc12 | -2.18 ± 4.6
36 | NS(=O)(=O)OC[C@@H]1C[C@@H](n2ccc3c(N[C@H]4CCc5ccccc54)ncnc32)C[C@@H]1O | -2.97
37 | COc1c(C)c2c(c(O)c1C/C=C(\C)CCC(=O)OCCN1CCOCC1)C(=O)OC2 | 0.549
38 | CC1OC(OC2C(OC3C(O[C@H]4CC[C@@]5(C)C(CC[C@]6(C)C5CC=C5[C@@H]7CC(C)(C)C[C@@H](O)[C@]7(C)CC[C@]56C)C4(C)C)OC(C(=O)O)C(O)C3O)OC(CO)C(O)C2O)C(O)C(O)C1O (stereo partly drawn) | -1.34
39 | COc1cc([C@@H]2c3cc4c(cc3[C@@H](O[C@@H]3O[C@@H]5CO[C@@H](C)O[C@H]5[C@H](O)[C@H]3O)[C@H]3COC(=O)[C@H]23)OCO4)cc(OC)c1O | 1.27 and 1.94 and 2.14
40 | CC[C@@H](CO)NCCN[C@@H](CC)CO | 1.57
41 | COc1cc(/C(C)=C/C(C)CCCC(=O)O)oc(=O)c1C (stereo not drawn) | 3.54
42 | CC(=O)NC(Cc1c[nH]c2cc(Cl)ccc12)C(=O)O (stereo not drawn) | 0.772

Compounds from the list above that have sulfur:
Row | Compound | cell shape (Z-score)
33 | COc1ccc(S(=O)(=O)Nc2nnc(CC(C)C)s2)cc1 | 1.84
36 | NS(=O)(=O)OC[C@@H]1C[C@@H](n2ccc3c(N[C@H]4CCc5ccccc54)ncnc32)C[C@@H]1O | -2.97

(continued)

Row | Compound | cell shape (Z-score)
43 | c1cnc(SCc2cccnc2)nc1 | 0.38
44 | COCC1=C(C(=O)OC(C)OC(=O)OC(C)C)N2C(=O)[C@@H](NC(=O)/C(=N/OC)c3csc(N)n3)[C@H]2SC1 (stereo partly drawn) | 3.87
45 | COc1cc2occ(-c3ccc4c(c3)OCO4)c(=O)c2c(OC)c1OC | 1.55
46 | C/C=C/C=C/C(=O)c1cc(C)c(O)c(C)c1O | 1.03
47 | COc1cc([C@@H]2C3C=C([C@H]4Oc5cc(O)cc(O)c5C(=O)[C@@H]4O)[C@H]4[C@@H]2COC4(O)C3=O)ccc1O | 0.475
48 | COc1ccc2oc3ccccc3c(=O)c2c1 | 3.87
49 | C[C@@H]1O[C@@H](O[C@H]2[C@H](Oc3cc(O)c4c(c3)O[C@H](c3ccc(O)c(O)c3)CC4=O)O[C@H](CO)[C@@H](O)[C@@H]2O)[C@H](O)[C@H](O)[C@H]1O | -0.575
50 | CC1=CCC(C(C)(C)O[C@@H]2O[C@H](CO[C@@H]3O[C@H](COC(=O)c4cc(O)c(O)c(O)c4)[C@@H](O)[C@H](O)[C@H]3O)[C@@H](O)[C@H](O)[C@H]2O)CC1 (stereo partly drawn) | -0.399
51 | CC(O)Cn1cnc2c1c(=O)n(C)c(=O)n2C (stereo not drawn) | 2.87
52 | COc1cc(C2Oc3c(OC)cc(CCCO)cc3C2CO)ccc1O[C@H]1O[C@H](C)[C@@H](O)[C@H](O)[C@@H]1O (stereo partly drawn) | 0.0375
53 | CC(C)[C@@H]1CC[C@@]2(C)CCC[C@@](C)(O)[C@@H]2[C@H]1OC(=O)/C=C/c1ccccc1 | 2.15
54 | C=Cc1ccc(O[C@@H]2O[C@H](CO[C@@H]3O[C@@H](C)[C@H](O)[C@@H](O)[C@H]3O)[C@@H](O)[C@H](O)[C@H]2O)cc1 | 0.0578 ± 0.94
55 | CC1CC(C)CN(c2cc(Nc3ccccc3C(=O)O)c3c4c(onc24)-c2ccccc2C3=O)C1 (stereo not drawn) | 3.59
56 | CC1(C)CC[C@]2(C(=O)O)CC[C@]3(C)C(=CCC4[C@@]5(C)C[C@@H](O)[C@H](O)[C@@](C)(CO)C5[C@H](O)C[C@]43C)[C@@H]2C1 (stereo partly drawn) | 0.344 ± 0.85
57 | CNC(=Nc1ccc(C2=NNC(=O)CC2C)cc1)NC#N (stereo not drawn) | 3.06
58 | CCCN(CCC)S(=O)(=O)c1ccc(C(=O)O)cc1 | 2.06
59 | C=C(C(=O)O)[C@@H]1CC[C@@]2(C)CC[C@@H](O)C(=C)C2C1 (stereo partly drawn) | 0.351
60 | O=C(O)Cc1cccc(OCCCN(Cc2cccc(C(F)(F)F)c2Cl)CC(c2ccccc2)c2ccccc2)c1 | 1.13
61 | N#CC(=Cc1ccc(O)c(O)c1)C(=O)OCCc1cccs1 | 3.95
62 | CN(C)CC(=O)N[C@@H]1CC[C@@H](CCNC(=O)Nc2ccc(F)cc2)O[C@H]1CO | 1.53
63 | Cc1cc(N2CCCCC2)nc2ccccc12 | 0.281

Row | Compound | cell shape (Z-score)
64 | O=c1cc(-c2ccc(O)c(O)c2)c2c(O[C@@H]3O[C@H](CO)[C@@H](O)[C@H](O)[C@H]3O)cc(O)cc2o1 | 1.33
65 | CCNC(=O)[C@@H]1CCCN1C(=O)[C@H](CCCNC(=N)N)NC(=O)[C@H](CC(C)C)NC(=O)[C@@H](COC(C)(C)C)NC(=O)[C@H](Cc1ccc(O)cc1)NC(=O)[C@H](CO)NC(=O)[C@H](Cc1c[nH]c2ccccc12)NC(=O)[C@H](Cc1cnc[nH]1)NC(=O)C1CCC(=O)N1 (stereo partly drawn) | -0.749
66 | O=C(CCCCCCCn1cc(-c2cccnc2)nn1)Nc1ccccc1-c1ccccc1 | 3.26
67 | COc1ccccc1N1CCN(CCn2c(=O)[nH]c3c([nH]c4ccccc43)c2=O)CC1 | 1.24
68 | COc1ccc([C@@]2(O)c3c(ccc(/C=C/C4(C)CCC(C)(C)CO4)c3O)NC(=O)[C@@H]2OC)cc1 (stereo partly drawn) | 2.91
69 | CCN(CC)CCCC(C)Nc1nc(C)cc(Nc2ccc3nc(C)cc(N)c3c2)n1 (stereo not drawn) | 4.66
70 | CC1OC(O[C@H]2CC[C@@]3(C)C(CC[C@]4(C)C3CC=C3C5CC(C)(C)CC[C@]5(C(=O)OC5OC(CO)C(OC6OC(CO)C(O)C(O)C6O)C(O)C5O)CC[C@]34C)C2(C)C)C(O)C(O)C1OC1OCC(O)(COC2OCC(O)C(OC3OCC(OC4OCC(O)(CO)C4O)C(O)C3O)C2O)C1O (stereo partly drawn) | 0.323
71 | CC(C)(C)NCC(O)COc1cccc2[nH]c(=O)[nH]c12 (stereo not drawn) | 3.02
72 | COC(=O)/C=C/C(=O)N(O)CCCCNCc1ccc(COC(=O)Nc2cccc3ccccc23)cc1 | 2.34
73 | COC(=O)C[C@H]1[C@]2(C)C3=C(C)[C@H](c4ccoc4)C[C@H]3O[C@@H]2[C@H](OC(C)=O)C2[C@](C)(C(=O)OC)C=CC(=O)[C@@]21C (stereo partly drawn) | 0.979
74 | CC(C)C[C@H](NC(=O)[C@H](Cc1ccccc1)C[C@@H](O)[C@H](Cc1ccccc1)NC(=O)OC(C)(C)C)C(=O)N[C@@H](Cc1ccccc1)C(N)=O | -0.393
75 | CC(=O)[C@H]1CCC2[C@@H]3CCC4=CC(=O)CC[C@]4(C)C3CC[C@@]21C (stereo partly drawn) | 2.99
76 | C/C=C/C1C2OC3=C(C(=O)OC3(C)O)C(=O)C1(C)C1CC(O)C(C)CC1C2O (stereo not drawn) | 0.504
77 | Cc1cnc(Nc2ccc(OCCN3CCCC3)cc2)nc1Nc1cccc(S(=O)(=O)NC(C)(C)C)c1 | 11.9
78 | CC(C)(C)n1nc(-c2cccc3ccccc23)c2c(N)ncnc21 | 16.7
79 | COc1ccc(C(=O)/C=C/c2ccccc2)cc1 | 3.14
80 | OCCn1cc(-c2ccc3c(c2)CC/C3=N\O)c(-c2ccncc2)n1 | 3.67
81 | Cc1cc(Cn2cnc3c2CC(C(=O)O)N(C(=O)C(c2ccccc2)c2ccccc2)C3)ccc1N(C)C (stereo not drawn) | 0.582
82 | CC(=O)Oc1cccc(C)c1 | 2.42
83 | Cc1onc(-c2ccccc2)c1-c1ccc(S(N)(=O)=O)cc1 | -0.0545

— the supplement of paper PMC7858590
